Experimental findings from PMC7156037 are described below.

Protein sequences, listed by entry. Tags and fused reporters are not part of them. Lines headed by an entry give the natural chain unless they say otherwise; changes in a name come on top.
UniProt Q9LEV0: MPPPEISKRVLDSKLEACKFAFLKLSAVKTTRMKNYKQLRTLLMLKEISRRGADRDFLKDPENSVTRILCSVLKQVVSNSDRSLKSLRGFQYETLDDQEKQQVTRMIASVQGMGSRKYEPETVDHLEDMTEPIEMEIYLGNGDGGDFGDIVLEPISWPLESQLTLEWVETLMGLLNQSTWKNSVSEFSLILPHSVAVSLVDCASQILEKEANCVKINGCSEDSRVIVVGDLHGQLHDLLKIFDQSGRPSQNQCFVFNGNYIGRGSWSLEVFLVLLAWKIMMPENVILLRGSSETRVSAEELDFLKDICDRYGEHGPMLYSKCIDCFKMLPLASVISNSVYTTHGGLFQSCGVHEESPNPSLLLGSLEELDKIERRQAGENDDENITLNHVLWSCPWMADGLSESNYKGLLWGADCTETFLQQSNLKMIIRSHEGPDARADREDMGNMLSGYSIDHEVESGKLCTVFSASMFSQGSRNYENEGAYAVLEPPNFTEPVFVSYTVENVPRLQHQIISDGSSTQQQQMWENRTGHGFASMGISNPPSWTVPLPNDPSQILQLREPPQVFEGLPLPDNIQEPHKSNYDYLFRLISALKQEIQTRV

No constants are given. Whether binding was seen depends on the method and setting. Binding seen in cells or lysates may run through a third protein. A yes stands for co-enrichment or nearness to the bait. Other partners may have been found. Tags and fused reporters may be left off the sequences shown.

The target of test [1] is T1, … OF … (MAIN), FLAG-tagged (A. thaliana) (UniProt Q9LMT7).
T1 sequence: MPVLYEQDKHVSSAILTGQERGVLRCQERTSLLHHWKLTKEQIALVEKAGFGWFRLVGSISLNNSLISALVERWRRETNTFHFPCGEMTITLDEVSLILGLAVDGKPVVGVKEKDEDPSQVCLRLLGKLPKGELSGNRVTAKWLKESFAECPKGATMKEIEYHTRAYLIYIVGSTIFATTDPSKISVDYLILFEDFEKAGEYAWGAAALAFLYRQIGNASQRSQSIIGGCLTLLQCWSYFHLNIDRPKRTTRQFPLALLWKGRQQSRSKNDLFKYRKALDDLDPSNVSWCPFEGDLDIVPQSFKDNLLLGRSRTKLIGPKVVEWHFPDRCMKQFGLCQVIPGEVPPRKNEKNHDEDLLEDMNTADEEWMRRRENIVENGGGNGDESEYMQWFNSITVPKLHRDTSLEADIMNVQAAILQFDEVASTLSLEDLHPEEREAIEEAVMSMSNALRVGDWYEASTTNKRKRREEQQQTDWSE
The experiment in a line: affinity purification with mass spectrometry; FLAG-tagged bait captured on M2 magnetic FLAG-beads from extract of 3-week-old seedlings; IP buffer 50mM Tris HCl pH 7.6, 150mM NaCl, 5mM MgCl2, 0.1% Nonidet P-40, 10% glycerol, 0.5mM DTT; 90 min at 4°C; seven washes; eluted with 3x-FLAG peptides; WT plants as negative control.

The target in test [2] is T2, MAIN-LIKE 1 (MAIL1), FLAG-tagged (A. thaliana) (UniProt Q9SK32).
T2 sequence: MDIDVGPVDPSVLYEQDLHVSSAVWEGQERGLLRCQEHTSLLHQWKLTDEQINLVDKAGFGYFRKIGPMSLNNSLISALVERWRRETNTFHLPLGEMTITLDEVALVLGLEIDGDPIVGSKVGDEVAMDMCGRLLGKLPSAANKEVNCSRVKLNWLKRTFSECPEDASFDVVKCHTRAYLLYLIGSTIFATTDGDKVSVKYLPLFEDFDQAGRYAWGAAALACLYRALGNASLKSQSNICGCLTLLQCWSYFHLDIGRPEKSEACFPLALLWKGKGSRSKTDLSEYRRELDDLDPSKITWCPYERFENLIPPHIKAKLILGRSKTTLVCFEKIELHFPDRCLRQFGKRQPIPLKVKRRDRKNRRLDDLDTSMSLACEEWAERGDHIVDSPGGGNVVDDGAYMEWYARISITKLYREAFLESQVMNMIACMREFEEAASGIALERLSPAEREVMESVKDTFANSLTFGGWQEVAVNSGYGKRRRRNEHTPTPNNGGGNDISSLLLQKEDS
The description is as above.

With “PP7-like (PP7L), endogenous (from UniProt Q9LEV0)”, the binding result in test [1] and in test [2] was “binds” throughout.

B1: MAIN-LIKE 1 (MAIL1), endogenous (protein, UniProt Q9SK32 1-509)
chain: T2 sequence
For B1, the binding entry in test [1] was “binds”.
